# Measurements: the supplement of paper PMC8728848
# This is one part of the list.
# How the values were obtained:
# Assay in all cases: glycan array binding signal (z-score within array); higher = stronger binding
# Details in all cases: glycan notation: IUPAC condensed, linker removed
# Neu5Ac(a2-8)Neu5Ac = target: Neu5Ac(a2-8)Neu5Ac
# Method in brief: (§1)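 The Consortium for Functional Glycomics database supplied 3228 glycan arrays, of which those lacking an available protein sequence were dropped. The binding signal, a within-array Z-score, was averaged across arrays of the same protein sequence and across linkers. Negative scores can be read as non-binding.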
# [1] = target: Neu5Ac(a2-8)Neu5Ac(a2-3)Gal(b1-3)GalNAc(b1-4)[Neu5Ac(a2-3)]Gal(b1-4)Glc
# Method in brief: as §1
# [2] = target: Neu5Ac(a2-8)Neu5Ac(a2-3)Gal(b1-3)GalNAc(b1-4)[Neu5Ac(a2-8)Neu5Ac(a2-3)]Gal(b1-4)Glc
# Method in brief: as §1
# [3] = target: Neu5Ac(a2-8)Neu5Ac(a2-3)Gal(b1-4)Glc
# Method in brief: as §1
# [4] = target: Neu5Ac(a2-8)Neu5Ac(a2-3)Gal(b1-4)GlcNAc
# Method in brief: as §1
# [5] = target: Neu5Ac(a2-8)Neu5Ac(a2-3)[Gal(b1-3)GalNAc(b1-4)]Gal(b1-4)Glc
# Method in brief: as §1
# [6] = target: Neu5Ac(a2-8)Neu5Ac(a2-3)[GalNAc(b1-4)]Gal(b1-4)Glc
# Method in brief: as §1
# [7] = target: Neu5Ac(a2-8)Neu5Ac(a2-8)Neu5Ac
# Method in brief: as §1
# [8] = target: Neu5Ac(a2-8)Neu5Ac(a2-8)Neu5Ac(a2-3)Gal(b1-4)Glc
# Method in brief: as §1
# [9] = target: Neu5Ac(a2-8)Neu5Ac(a2-8)Neu5Ac(a2-3)[Gal(b1-3)GalNAc(b1-4)]Gal(b1-4)Glc
# Method in brief: as §1
# [10] = target: Neu5Ac(a2-8)Neu5Ac(a2-8)Neu5Ac(a2-3)[GalNAc(b1-4)]Gal(b1-4)Glc
# Method in brief: as §1
# [11] = target: Neu5Ac(a2-8)Neu5Ac(a2-8)Neu5Ac(a2-8)Neu5Ac(a2-3)[GalNAc(b1-4)]Gal(b1-4)Glc
# Method in brief: as §1
# [12] = target: Neu5Ac(a2-8)Neu5Gc(a2-3)Gal(b1-4)GlcNAc
# Method in brief: as §1
# [13] = target: Neu5Ac(b2-6)Gal(b1-4)GlcNAc
# Method in brief: as §1
# Neu5Ac(b2-6)GalNAc = target: Neu5Ac(b2-6)GalNAc
# Method in brief: as §1
# [14] = target: Neu5Ac9Ac(a2-3)Gal(b1-3)GlcNAc
# Method in brief: as §1
# [15] = target: Neu5Ac9Ac(a2-3)Gal(b1-4)GlcNAc
# Method in brief: as §1
# [16] = target: Neu5Ac9Ac(a2-6)Gal(b1-4)GlcNAc
# Method in brief: as §1
# [17] = target: Neu5Gc(a2-3)Gal(b1-3)GlcNAc
# Method in brief: as §1
# [18] = target: Neu5Gc(a2-3)Gal(b1-3)[Fuc(a1-4)]GlcNAc
# Method in brief: as §1
# Neu5Gc(a2-3)Gal(b1-4)Glc = target: Neu5Gc(a2-3)Gal(b1-4)Glc
# Method in brief: as §1
# [19] = target: Neu5Gc(a2-3)Gal(b1-4)GlcNAc
# Method in brief: as §1
# [20] = target: Neu5Gc(a2-3)Gal(b1-4)GlcNAc(b1-3)Gal(b1-4)GlcNAc(b1-2)Man(a1-3)[Neu5Gc(a2-3)Gal(b1-4)GlcNAc(b1-3)Gal(b1-4)GlcNAc(b1-2)Man(a1-6)]Man(b1-4)GlcNAc(b1-4)GlcNAc
# Method in brief: as §1
# [21] = target: Neu5Gc(a2-3)Gal(b1-4)[Fuc(a1-3)]GlcNAc
# Method in brief: as §1
# [22] = target: Neu5Gc(a2-6)Gal(b1-4)GlcNAc
# Method in brief: as §1
# Neu5Gc(a2-6)GalNAc = target: Neu5Gc(a2-6)GalNAc
# Method in brief: as §1
# [23] = target: Neu5Gc(a2-8)Neu5Ac(a2-3)Gal(b1-4)GlcNAc
# Method in brief: as §1
# [24] = target: Neu5Gc(a2-8)Neu5Gc(a2-3)Gal(b1-4)GlcNAc
# Method in brief: as §1
# [25] = target: Neu5Gc(a2-8)Neu5Gc(a2-3)Gal(b1-4)GlcNAc(b1-3)Gal(b1-4)GlcNAc
# Method in brief: as §1
# [26] = target: Neu5Gc(a2-8)Neu5Gc(a2-6)Gal(b1-4)GlcNAc
# Method in brief: as §1
# [27] = target: Neu5Gc(b2-6)Gal(b1-4)GlcNAc
# Method in brief: as §1
binder,measurement,setting,value
Awp1 (Candida glabrata) (protein) MSLITIFAFLIKATLVLSLDILTPTTLTGDQTFNEDVSVVSSLTLNDGSQYLFNNLLQIAPSSASVTANALAAVSVFTFSLPPSSSLSNSGTLIISNSNTGPSTEQHIVITPNVMANTGTITLSLAHTNTDSSSTLIIDPVTFYNTGTINYESIGSETNDPSLTGNILSIGSSGRTLQNLGTINLNAANSYYLLGTITENSGSINVQKGFLYVNALDFIGNTINLSTTTALAFISPVSQVVRVRGVFFGNIIASVGSSGTFSYNTQTGILTVTTNGVYSYDIGCGYNPALMSGQQETLSFQGNPYDTFLVLVNQPIPSDLTCAAVSSSITPSSSVEPSSSVVPSSSVEPSSSVEPSSSVEPSSSVEPSSSVEPSSSVEPSSSVEPSSSVEPSSSVEPSSSVEPSSSVEPSSSVEPSSSVEPSSSVEPSSSVEPSSSVEPSSSVEPSSSVEPSSSVEPSSLIVPSSSVEPSSSVLPSSSVVPSSSVEPSTPPIPSSSVEPSSSVVPSSPAVPSSSVEPSTPPIPSSSVVSASVFDTSSTLPSSPSVPPSSVSPSTISTPSSSAAPSSFCPTCVSSGTPPAPSSSAIVPTSSAGGGNGGDNREPGAAGQPGAAGQPGAAGQPGAAGQPGAAGQPGAAGQPGAAGQPGAAGQPGAAGQPGAAGQPGAGFGVGSEQPTPGAGAGSGSADGNQSGTGSGTGNGQQGSGQAGSGQAGSGQEGSGQAGSGQAGSGQAGSGQAGSGQAGLDNTASGQSEGGQASAMDGDQSGRDGQSNSGSLLQPNAQQGTGSGTGSDIGADQASGESPGQIGDAQPGSGTDQSSGRHSLAAEARTSQSHSLAADARTRSTTRQTSVIAPDTAPGTASGTAPGTAPGTAVVTTFHGCGTVNHKGMINILLALALLVLL,glycan array binding signal (z-score),Neu5Ac(a2-8)Neu5Ac,-1.66
same,glycan array binding signal (z-score),[1],1.39
same,glycan array binding signal (z-score),[2],0.954
same,glycan array binding signal (z-score),[3],0.225
same,glycan array binding signal (z-score),[4],-0.772
same,glycan array binding signal (z-score),[5],1.4
same,glycan array binding signal (z-score),[6],0.458
same,glycan array binding signal (z-score),[7],0.396
same,glycan array binding signal (z-score),[8],0.964
same,glycan array binding signal (z-score),[9],-0.734
same,glycan array binding signal (z-score),[10],0.706
same,glycan array binding signal (z-score),[11],-1.71
same,glycan array binding signal (z-score),[12],-0.628
same,glycan array binding signal (z-score),[13],0.599
same,glycan array binding signal (z-score),Neu5Ac(b2-6)GalNAc,-0.475
same,glycan array binding signal (z-score),[14],-0.768
same,glycan array binding signal (z-score),[15],-0.636
same,glycan array binding signal (z-score),[16],0.53
same,glycan array binding signal (z-score),[17],-1.5
same,glycan array binding signal (z-score),[18],-0.121
same,glycan array binding signal (z-score),Neu5Gc(a2-3)Gal(b1-4)Glc,0.53
same,glycan array binding signal (z-score),[19],0.095
same,glycan array binding signal (z-score),[20],0.265
same,glycan array binding signal (z-score),[21],0.366
same,glycan array binding signal (z-score),[22],0.302
same,glycan array binding signal (z-score),Neu5Gc(a2-6)GalNAc,-0.217
same,glycan array binding signal (z-score),[23],0.588
same,glycan array binding signal (z-score),[24],-1.68
same,glycan array binding signal (z-score),[25],-1.79
same,glycan array binding signal (z-score),[26],0.366
same,glycan array binding signal (z-score),[27],-0.509

# Random excerpt: 2 records from the list.
binder,measurement,setting,value
Awp1 (Candida glabrata) (protein) MSLITIFAFLIKATLVLSLDILTPTTLTGDQTFNEDVSVVSSLTLNDGSQYLFNNLLQIAPSSASVTANALAAVSVFTFSLPPSSSLSNSGTLIISNSNTGPSTEQHIVITPNVMANTGTITLSLAHTNTDSSSTLIIDPVTFYNTGTINYESIGSETNDPSLTGNILSIGSSGRTLQNLGTINLNAANSYYLLGTITENSGSINVQKGFLYVNALDFIGNTINLSTTTALAFISPVSQVVRVRGVFFGNIIASVGSSGTFSYNTQTGILTVTTNGVYSYDIGCGYNPALMSGQQETLSFQGNPYDTFLVLVNQPIPSDLTCAAVSSSITPSSSVEPSSSVVPSSSVEPSSSVEPSSSVEPSSSVEPSSSVEPSSSVEPSSSVEPSSSVEPSSSVEPSSSVEPSSSVEPSSSVEPSSSVEPSSSVEPSSSVEPSSSVEPSSSVEPSSSVEPSSSVEPSSLIVPSSSVEPSSSVLPSSSVVPSSSVEPSTPPIPSSSVEPSSSVVPSSPAVPSSSVEPSTPPIPSSSVVSASVFDTSSTLPSSPSVPPSSVSPSTISTPSSSAAPSSFCPTCVSSGTPPAPSSSAIVPTSSAGGGNGGDNREPGAAGQPGAAGQPGAAGQPGAAGQPGAAGQPGAAGQPGAAGQPGAAGQPGAAGQPGAAGQPGAGFGVGSEQPTPGAGAGSGSADGNQSGTGSGTGNGQQGSGQAGSGQAGSGQEGSGQAGSGQAGSGQAGSGQAGSGQAGLDNTASGQSEGGQASAMDGDQSGRDGQSNSGSLLQPNAQQGTGSGTGSDIGADQASGESPGQIGDAQPGSGTDQSSGRHSLAAEARTSQSHSLAADARTRSTTRQTSVIAPDTAPGTASGTAPGTAPGTAVVTTFHGCGTVNHKGMINILLALALLVLL,glycan array binding signal (z-score),[21],0.366
same,glycan array binding signal (z-score),[2],0.954
